Results on four molecules are retold here after article PMC8748630.

No constants are given. Whether binding was seen depends on the method and setting. In cells and extracts the contact can be indirect. A yes stands for co-enrichment or nearness to the bait. Other partners may have been found. No binding means not detected with the bait.

Assay [1] has as its target T1, AGIA-AirID-CRBN-WT, Q96SW2.
T1 chain: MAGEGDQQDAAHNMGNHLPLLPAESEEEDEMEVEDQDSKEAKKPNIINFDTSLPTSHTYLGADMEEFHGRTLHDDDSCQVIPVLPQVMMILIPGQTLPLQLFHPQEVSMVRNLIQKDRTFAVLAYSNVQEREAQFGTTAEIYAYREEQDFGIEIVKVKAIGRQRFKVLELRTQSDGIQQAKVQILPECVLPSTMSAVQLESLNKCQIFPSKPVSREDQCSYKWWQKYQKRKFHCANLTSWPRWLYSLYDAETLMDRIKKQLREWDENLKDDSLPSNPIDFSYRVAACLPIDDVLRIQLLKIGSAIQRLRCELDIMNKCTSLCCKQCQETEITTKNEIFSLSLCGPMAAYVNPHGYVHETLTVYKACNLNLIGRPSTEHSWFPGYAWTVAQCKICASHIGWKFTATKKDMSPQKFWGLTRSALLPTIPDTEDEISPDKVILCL
As to the kind of experiment: proximity labelling; look-up of CRL4 components and known CRBN interactors in the LC-MS/MS analyses of AirID-CRBN cells (Supplementary Fig. 7); cell lines not given. As to conditions: remark: other sources report otherwise.

Assay [2] deals with AGIA-TurboID-CRBN-WT (UniProt Q96SW2). The assay is described as follows: proximity labelling; comparison of enzymes: HEK293T or IMR32 cells stably expressing AGIA-AirID-CRBN or AGIA-TurboID-CRBN; DMSO or 10 µM pomalidomide, 10 µM biotin, 5 µM MG132, 2 h or 6 h; streptavidin pull-down, immunoblot. Background: A western blot detects proteins with antibodies after separation by electrophoresis.

Assay [3] has the same target. As to the kind of experiment: proximity labelling; IMR32 cells stably expressing AGIA-AirID-CRBN or AGIA-TurboID-CRBN; DMSO or 10 µM pomalidomide, 10 µM biotin, 5 µM MG132, 2 h; tamavidin 2-REV, LC-MS/MS.
For assay [4], the target named is AGIA-AirID-CRBN-WT (UniProt Q96SW2). The assay is described as follows: proximity labelling; look-up of CRL4 components and known CRBN interactors in the LC-MS/MS analyses of AirID-CRBN cells (Supplementary Fig. 7); cell lines not given.

B1: MCT-1, P53985 1-500 (protein)
chain: MPPAVGGPVGYTPPDGGWGWAVVIGAFISIGFSYAFPKSITVFFKEIEGIFHATTSEVSWISSIMLAVMYGGGPISSILVNKYGSRIVMIVGGCLSGCGLIAASFCNTVQQLYVCIGVIGGLGLAFNLNPALTMIGKYFYKRRPLANGLAMAGSPVFLCTLAPLNQVFFGIFGWRGSFLILGGLLLNCCVAGALMRPIGPKPTKAGKDKSKASLEKAGKSGVKKDLHDANTDLIGRHPKQEKRSVFQTINQFLDLTLFTHRGFLLYLSGNVIMFFGLFAPLVFLSSYGKSQHYSSEKSAFLLSILAFVDMVARPSMGLVANTKPIRPRIQYFFAASVVANGVCHMLAPLSTTYVGFCVYAGFFGFAFGWLSSVLFETLMDLVGPQRFSSAVGLVTIVECCPVLLGPPLLGRLNDMYGDYKYTYWACGVVLIISGIYLFIGMGINYRLLAKEQKANEQKKESKEEETSIDVAGKPNEVTKAAESPDQKDTDGGPKEEESPV
B1: the binding result in assay [1] was “no binding”.

B2: ZMYM2 (protein, UniProt Q9UBW7 1-1377)
chain: MDTSSVGGLELTDQTPVLLGSTAMATSLTNVGNSFSGPANPLVSRSNKFQNSSVEDDDDVVFIEPVQPPPPSVPVVADQRTITFTSSKNEELQGNDSKITPSSKELASQKGSVSETIVIDDEEDMETNQGQEKNSSNFIERRPPETKNRTNDVDFSTSSFSRSKVNAGMGNSGITTEPDSEIQIANVTTLETGVSSVNDGQLENTDGRDMNLMITHVTSLQNTNLGDVSNGLQSSNFGVNIQTYTPSLTSQTKTGVGPFNPGRMNVAGDVFQNGESATHHNPDSWISQSASFPRNQKQPGVDSLSPVASLPKQIFQPSVQQQPTKPVKVTCANCKKPLQKGQTAYQRKGSAHLFCSTTCLSSFSHKPAPKKLCVMCKKDITTMKGTIVAQVDSSESFQEFCSTSCLSLYEDKQNPTKGALNKSRCTICGKLTEIRHEVSFKNMTHKLCSDHCFNRYRMANGLIMNCCEQCGEYLPSKGAGNNVLVIDGQQKRFCCQSCVSEYKQVGSHPSFLKEVRDHMQDSFLMQPEKYGKLTTCTGCRTQCRFFDMTQCIGPNGYMEPYCSTACMNSHKTKYAKSQSLGIICHFCKRNSLPQYQATMPDGKLYNFCNSSCVAKFQALSMQSSPNGQFVAPSDIQLKCNYCKNSFCSKPEILEWENKVHQFCSKTCSDDYKKLHCIVTYCEYCQEEKTLHETVNFSGVKRPFCSEGCKLLYKQDFARRLGLRCVTCNYCSQLCKKGATKELDGVVRDFCSEDCCKKFQDWYYKAARCDCCKSQGTLKERVQWRGEMKHFCDQHCLLRFYCQQNEPNMTTQKGPENLHYDQGCQTSRTKMTGSAPPPSPTPNKEMKNKAVLCKPLTMTKATYCKPHMQTKSCQTDDTWRTEYVPVPIPVPVYIPVPMHMYSQNIPVPTTVPVPVPVPVFLPAPLDSSEKIPAAIEELKSKVSSDALDTELLTMTDMMSEDEGKTETTNINSVIIETDIIGSDLLKNSDPETQSSMPDVPYEPDLDIEIDFPRAAEELDMENEFLLPPVFGEEYEEQPRPRSKKKGAKRKAVSGYQSHDDSSDNSECSFPFKYTYGVNAWKHWVKTRQLDEDLLVLDELKSSKSVKLKEDLLSHTTAELNYGLAHFVNEIRRPNGENYAPDSIYYLCLGIQEYLCGSNRKDNIFIDPGYQTFEQELNKILRSWQPSILPDGSIFSRVEEDYLWRIKQLGSHSPVALLNTLFYFNTKYFGLKTVEQHLRLSFGTVFRHWKKNPLTMENKACLRYQVSSLCGTDNEDKITTGKRKHEDDEPVFEQIENTANPSRCPVKMFECYLSKSPQNLNQRMDVFYLQPECSSSTDSPVWYTSTSLDRNTLENMLVRVLLVKDIYDKDNYELDEDTD
Regarding B2, the binding result is recorded as “no binding (tested: 10 µM pomalidomide, 2 h)” in assay [2] and “no binding (tested: 10 µM pomalidomide, 2 h)” in assay [3].

B3: MEIS, O14770 1-477 (protein)
chain: MAQRYDELPHYGGMDGVGVPASMYGDPHAPRPIPPVHHLNHGPPLHATQHYGAHAPHPNVMPASMGSAVNDALKRDKDAIYGHPLFPLLALVFEKCELATCTPREPGVAGGDVCSSDSFNEDIAVFAKQVRAEKPLFSSNPELDNLMIQAIQVLRFHLLELEKVHELCDNFCHRYISCLKGKMPIDLVIDERDGSSKSDHEELSGSSTNLADHNPSSWRDHDDATSTHSAGTPGPSSGGHASQSGDNSSEQGDGLDNSVASPGTGDDDDPDKDKKRQKKRGIFPKVATNIMRAWLFQHLTHPYPSEEQKKQLAQDTGLTILQVNNWFINARRRIVQPMIDQSNRAGFLLDPSVSQGAAYSPEGQPMGSFVLDGQQHMGIRPAGLQSMPGDYVSQGGPMGMSMAQPSYTPPQMTPHPTQLRHGPPMHSYLPSHPHHPAMMMHGGPPTHPGMTMSAQSPTMLNSVDPNVGGQVMDIHAQ
For the molecule B3, the binding result in assay [1] is given as “no binding”.

B4: UBE2G1 (protein, UniProt P62253 1-170)
chain: MTELQSALLLRRQLAELNKNPVEGFSAGLIDDNDLYRWEVLIIGPPDTLYEGGVFKAHLTFPKDYPLRPPKMKFITEIWHPNVDKNGDVCISILHEPGEDKYGYEKPEERWLPIHTVETIMISVISMLADPNGDSPANVDAAKEWREDRNGEFKRKVARCVRKSQETAFE
Regarding B4, the binding result in assay [4] was “no binding”.
